According to the supplement of paper PMC11006884:
Most of the targets with a hit are listed elsewhere, so they are rarer here than in the full data. Single values of this set are uncertain. This is a selection; strong and weak results do not stand in their true shares.

Chains of the proteins cited; added tags and fusions are not shown. Lines headed by an entry give the natural chain unless they say otherwise; changes in a name come on top.
UniProt Q9UBB4: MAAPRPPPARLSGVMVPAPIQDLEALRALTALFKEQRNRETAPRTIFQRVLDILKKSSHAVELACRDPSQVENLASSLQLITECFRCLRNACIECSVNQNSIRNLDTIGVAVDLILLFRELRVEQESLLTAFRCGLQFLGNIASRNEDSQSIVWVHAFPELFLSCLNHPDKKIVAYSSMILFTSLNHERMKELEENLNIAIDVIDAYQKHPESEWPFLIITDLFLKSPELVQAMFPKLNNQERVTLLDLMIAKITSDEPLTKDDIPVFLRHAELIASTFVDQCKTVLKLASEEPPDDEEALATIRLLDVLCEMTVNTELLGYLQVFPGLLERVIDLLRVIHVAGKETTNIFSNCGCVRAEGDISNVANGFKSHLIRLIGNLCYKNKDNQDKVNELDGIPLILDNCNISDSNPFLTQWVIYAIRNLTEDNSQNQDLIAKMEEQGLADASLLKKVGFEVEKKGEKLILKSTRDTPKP
UniProt Q9NVP2, whole entry, looked up: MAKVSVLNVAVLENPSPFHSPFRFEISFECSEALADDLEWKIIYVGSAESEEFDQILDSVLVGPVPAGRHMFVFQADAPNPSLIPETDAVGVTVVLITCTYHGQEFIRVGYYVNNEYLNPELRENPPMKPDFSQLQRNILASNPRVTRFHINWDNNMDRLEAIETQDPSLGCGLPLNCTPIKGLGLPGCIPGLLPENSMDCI
UniProt Q9P2J5: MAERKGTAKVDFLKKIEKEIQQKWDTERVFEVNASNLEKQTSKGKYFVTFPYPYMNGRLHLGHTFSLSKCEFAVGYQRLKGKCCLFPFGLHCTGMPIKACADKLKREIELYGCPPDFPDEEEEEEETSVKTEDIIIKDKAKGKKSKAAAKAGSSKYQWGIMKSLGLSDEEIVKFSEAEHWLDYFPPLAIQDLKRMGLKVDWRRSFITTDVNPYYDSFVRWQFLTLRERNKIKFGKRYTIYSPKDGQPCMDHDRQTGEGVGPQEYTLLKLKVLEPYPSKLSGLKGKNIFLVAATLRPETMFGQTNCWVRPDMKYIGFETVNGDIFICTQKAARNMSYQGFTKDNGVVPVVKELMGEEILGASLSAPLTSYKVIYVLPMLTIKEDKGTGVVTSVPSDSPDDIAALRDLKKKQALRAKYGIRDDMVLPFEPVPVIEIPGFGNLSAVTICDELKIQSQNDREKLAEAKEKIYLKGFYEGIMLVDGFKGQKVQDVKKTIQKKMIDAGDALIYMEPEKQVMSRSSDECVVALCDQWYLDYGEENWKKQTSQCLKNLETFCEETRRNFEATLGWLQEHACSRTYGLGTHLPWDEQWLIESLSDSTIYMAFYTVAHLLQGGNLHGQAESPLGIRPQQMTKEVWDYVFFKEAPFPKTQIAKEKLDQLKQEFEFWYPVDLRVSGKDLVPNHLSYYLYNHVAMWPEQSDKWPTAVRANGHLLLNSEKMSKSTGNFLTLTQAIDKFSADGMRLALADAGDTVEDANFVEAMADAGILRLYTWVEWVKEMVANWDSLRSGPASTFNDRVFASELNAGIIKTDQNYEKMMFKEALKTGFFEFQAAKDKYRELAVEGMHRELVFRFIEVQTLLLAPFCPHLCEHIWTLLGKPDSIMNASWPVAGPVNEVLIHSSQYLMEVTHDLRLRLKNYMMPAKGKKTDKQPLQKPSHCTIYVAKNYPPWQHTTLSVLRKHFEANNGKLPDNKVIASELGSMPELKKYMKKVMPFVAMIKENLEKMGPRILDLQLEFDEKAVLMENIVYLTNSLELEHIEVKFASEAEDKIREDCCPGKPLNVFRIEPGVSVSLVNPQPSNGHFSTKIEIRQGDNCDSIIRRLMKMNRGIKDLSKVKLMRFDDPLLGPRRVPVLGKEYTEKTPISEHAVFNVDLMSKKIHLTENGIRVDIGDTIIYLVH
UniProt Q9P289: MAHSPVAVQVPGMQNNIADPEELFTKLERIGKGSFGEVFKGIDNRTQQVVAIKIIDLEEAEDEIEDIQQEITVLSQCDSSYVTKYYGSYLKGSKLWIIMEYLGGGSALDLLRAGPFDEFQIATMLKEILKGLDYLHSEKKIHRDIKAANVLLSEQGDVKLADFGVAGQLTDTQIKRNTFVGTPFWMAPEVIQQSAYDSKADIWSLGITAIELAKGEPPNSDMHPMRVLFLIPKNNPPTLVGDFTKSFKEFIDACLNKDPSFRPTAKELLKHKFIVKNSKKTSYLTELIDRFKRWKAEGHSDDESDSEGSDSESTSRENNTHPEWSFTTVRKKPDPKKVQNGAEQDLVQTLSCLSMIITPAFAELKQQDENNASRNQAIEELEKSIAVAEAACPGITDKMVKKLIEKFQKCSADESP
UniProt Q9NVI7: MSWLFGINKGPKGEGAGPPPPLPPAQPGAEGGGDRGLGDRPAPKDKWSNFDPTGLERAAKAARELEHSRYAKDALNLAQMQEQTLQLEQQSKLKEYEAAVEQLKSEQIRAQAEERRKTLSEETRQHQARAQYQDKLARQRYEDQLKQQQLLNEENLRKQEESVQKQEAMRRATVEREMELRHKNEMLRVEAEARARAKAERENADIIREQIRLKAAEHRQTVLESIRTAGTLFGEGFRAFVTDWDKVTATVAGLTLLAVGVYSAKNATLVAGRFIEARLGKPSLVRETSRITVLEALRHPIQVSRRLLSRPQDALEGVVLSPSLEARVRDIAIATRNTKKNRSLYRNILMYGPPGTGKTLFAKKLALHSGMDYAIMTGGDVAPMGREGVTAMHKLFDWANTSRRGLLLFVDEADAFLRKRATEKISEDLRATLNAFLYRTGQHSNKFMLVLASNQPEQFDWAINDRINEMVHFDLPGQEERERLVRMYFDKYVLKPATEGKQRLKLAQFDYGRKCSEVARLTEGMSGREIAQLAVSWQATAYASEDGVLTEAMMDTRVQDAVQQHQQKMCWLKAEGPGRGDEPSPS
UniProt Q9P219: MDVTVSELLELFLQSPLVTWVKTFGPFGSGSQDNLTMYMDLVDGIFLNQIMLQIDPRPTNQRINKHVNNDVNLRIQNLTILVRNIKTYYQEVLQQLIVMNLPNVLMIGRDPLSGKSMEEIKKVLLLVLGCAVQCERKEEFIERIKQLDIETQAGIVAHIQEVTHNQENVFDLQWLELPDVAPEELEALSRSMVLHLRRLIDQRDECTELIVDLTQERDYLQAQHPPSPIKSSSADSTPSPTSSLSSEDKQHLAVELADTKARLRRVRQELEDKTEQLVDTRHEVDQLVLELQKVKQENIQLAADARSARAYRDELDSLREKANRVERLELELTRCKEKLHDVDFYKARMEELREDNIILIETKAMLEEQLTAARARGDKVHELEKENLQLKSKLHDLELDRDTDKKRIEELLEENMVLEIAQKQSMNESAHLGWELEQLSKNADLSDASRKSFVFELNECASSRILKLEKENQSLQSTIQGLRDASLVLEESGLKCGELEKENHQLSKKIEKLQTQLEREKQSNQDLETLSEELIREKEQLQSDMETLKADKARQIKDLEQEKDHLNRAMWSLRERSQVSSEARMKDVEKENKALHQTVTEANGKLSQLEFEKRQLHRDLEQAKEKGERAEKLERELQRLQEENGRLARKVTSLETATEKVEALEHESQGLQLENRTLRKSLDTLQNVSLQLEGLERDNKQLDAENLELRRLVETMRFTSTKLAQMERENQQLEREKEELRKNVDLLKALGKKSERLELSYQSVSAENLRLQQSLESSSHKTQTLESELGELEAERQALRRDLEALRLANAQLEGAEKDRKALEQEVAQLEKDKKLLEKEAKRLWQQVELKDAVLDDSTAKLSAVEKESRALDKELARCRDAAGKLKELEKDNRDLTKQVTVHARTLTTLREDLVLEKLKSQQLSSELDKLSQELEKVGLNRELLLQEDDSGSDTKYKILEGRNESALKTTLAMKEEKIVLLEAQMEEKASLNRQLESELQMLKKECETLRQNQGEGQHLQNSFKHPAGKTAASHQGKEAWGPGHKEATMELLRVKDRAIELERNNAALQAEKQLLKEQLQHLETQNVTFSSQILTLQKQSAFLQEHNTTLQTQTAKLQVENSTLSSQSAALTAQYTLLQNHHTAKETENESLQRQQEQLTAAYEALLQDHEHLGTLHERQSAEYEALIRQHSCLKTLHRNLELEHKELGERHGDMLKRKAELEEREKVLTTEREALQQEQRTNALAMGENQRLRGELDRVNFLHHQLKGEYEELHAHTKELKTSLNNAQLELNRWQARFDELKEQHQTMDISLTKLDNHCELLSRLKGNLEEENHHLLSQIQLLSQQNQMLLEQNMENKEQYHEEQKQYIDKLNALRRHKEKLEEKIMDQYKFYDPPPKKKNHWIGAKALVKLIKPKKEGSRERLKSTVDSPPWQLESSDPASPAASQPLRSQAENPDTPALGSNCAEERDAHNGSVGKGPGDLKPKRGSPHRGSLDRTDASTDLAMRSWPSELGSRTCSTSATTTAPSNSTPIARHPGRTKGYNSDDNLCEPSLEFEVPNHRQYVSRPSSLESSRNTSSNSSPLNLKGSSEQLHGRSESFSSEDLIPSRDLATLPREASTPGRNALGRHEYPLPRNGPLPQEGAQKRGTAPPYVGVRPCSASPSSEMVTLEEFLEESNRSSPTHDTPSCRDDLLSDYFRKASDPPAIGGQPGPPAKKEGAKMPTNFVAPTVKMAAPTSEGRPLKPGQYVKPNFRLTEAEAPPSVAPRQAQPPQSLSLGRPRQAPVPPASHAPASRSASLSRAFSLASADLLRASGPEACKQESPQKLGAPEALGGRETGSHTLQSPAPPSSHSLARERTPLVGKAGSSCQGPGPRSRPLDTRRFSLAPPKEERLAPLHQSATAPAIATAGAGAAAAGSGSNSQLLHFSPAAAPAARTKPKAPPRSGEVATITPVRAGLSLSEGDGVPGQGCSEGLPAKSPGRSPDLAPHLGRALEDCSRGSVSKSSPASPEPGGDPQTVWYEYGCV
UniProt Q9UEY8: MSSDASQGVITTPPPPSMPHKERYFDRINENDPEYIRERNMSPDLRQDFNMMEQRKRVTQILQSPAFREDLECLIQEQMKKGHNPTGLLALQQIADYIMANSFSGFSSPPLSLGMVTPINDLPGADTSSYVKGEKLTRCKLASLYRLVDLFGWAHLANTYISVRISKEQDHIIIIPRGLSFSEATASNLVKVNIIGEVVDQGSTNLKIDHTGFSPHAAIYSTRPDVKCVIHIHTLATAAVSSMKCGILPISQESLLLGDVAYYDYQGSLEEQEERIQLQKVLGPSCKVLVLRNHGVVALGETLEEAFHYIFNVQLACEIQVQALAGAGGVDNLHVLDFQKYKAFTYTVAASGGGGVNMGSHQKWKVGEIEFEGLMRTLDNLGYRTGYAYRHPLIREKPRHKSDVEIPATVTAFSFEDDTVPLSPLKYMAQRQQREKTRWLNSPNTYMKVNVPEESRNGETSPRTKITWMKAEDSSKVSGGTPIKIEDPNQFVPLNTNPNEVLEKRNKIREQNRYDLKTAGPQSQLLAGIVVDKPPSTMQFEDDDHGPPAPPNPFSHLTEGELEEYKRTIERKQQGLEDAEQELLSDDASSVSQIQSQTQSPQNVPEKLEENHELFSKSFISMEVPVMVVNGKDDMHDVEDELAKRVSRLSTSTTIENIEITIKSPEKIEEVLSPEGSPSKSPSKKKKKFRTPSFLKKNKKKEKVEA
UniProt Q9NXU5: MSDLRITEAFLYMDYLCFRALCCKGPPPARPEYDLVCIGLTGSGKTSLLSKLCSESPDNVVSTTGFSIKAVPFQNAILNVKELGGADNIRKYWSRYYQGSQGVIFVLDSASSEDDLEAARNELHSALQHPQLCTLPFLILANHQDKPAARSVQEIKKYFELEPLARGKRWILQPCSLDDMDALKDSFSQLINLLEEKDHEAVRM
UniProt Q9UBB6: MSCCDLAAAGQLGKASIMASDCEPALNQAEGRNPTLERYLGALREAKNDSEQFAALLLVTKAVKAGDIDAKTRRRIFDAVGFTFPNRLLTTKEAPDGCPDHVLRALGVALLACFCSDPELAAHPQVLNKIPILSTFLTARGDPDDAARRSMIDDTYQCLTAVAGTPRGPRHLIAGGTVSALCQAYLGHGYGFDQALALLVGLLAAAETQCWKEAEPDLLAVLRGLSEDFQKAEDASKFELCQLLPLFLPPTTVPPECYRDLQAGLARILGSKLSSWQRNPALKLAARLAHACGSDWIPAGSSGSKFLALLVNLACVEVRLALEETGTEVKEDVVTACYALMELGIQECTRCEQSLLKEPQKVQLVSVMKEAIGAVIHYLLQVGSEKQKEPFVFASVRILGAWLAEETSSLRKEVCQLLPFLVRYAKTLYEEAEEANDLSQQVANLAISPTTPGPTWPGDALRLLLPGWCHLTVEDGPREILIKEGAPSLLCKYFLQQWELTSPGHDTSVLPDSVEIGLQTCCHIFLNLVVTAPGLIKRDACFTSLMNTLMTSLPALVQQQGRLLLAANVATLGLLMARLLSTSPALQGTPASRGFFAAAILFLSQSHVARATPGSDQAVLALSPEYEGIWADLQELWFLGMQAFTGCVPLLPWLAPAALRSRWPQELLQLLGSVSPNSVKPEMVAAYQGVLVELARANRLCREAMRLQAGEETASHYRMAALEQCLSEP

Compound: COC(=O)/C=C/c1ccccc1 [methyl cinnamate]
Assay: log2 ratio of iodoacetamide-alkyne labeling of the cysteine site, DMSO over compound (competition); higher = stronger covalent engagement of the cysteine by the compound, active = 1 or more
Conditions: 500 µM; treatment time 1 h; system: HEK293T cell lysate
Procedure, shortened: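 For each cysteine, the log2 competition ratio is mean control-channel reporter intensity over mean compound-channel reporter intensity. HEK293T lysate (2 mg/mL) was exposed to vehicle or electrophile (500 µM, 1 h, ambient temperature), labelled with iodoacetamide alkyne (1 h), clicked to sCIP-TMT reagents, digested overnight with trypsin at 37 °C, streptavidin-enriched and analysed by Orbitrap Eclipse LC-MS/MS with FAIMS and FragPipe. Cysteines quantified in only one of three replicates, each with duplicate channels, were excluded.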

log2 ratio of iodoacetamide-alkyne labeling, inactive:
ATXN10 C405 (UniProt Q9UBB4) 0.308
UTP6 C175 (UniProt Q9NYH9) 0.0176
TBC1D13 C145 (UniProt Q9NVG8) -0.0275
TBC1D13 C131 (UniProt Q9NVG8) 0.0195
FAM120C C14 (UniProt Q9NX05) 0.33
AASS C305 (UniProt Q9UDR5) 0.0113
ASF1B C178 (UniProt Q9NVP2) 0.387
COQ3 C186 (UniProt Q9NZJ6) 0.235
GNL3L C213 (UniProt Q9NVN8) 0.563
LARS C113 (UniProt Q9P2J5) 0.116
UniProt Q9P289_C410 0.392
FTSJ1 C238 (UniProt Q9UET6) 0.0433
COPG2 C420 (UniProt Q9UBF2) -0.178
RBM27 C776 (UniProt Q9P2N5) -0.0329
ZMYM2 C852 (UniProt Q9UBW7) 0.353
CNOT2 C175 (UniProt Q9NZN8) -0.0595
UniProt Q9NYV4_C1009 0.305
ATAD3A C563 (UniProt Q9NVI7) 0.0556
NUDT4 C131 (UniProt Q9NZJ9) 0.29
CHORDC1 C211 (UniProt Q9UHD1) 0.12
GMPR2 C348 (UniProt Q9P2T1) 0.121
CCDC88C C1520 (UniProt Q9P219) 0.378
TMEM30A C17 (UniProt Q9NV96) 0.218
ATXN10 C356 (UniProt Q9UBB4) 0.437
TRMT1 C621 (UniProt Q9NXH9) 0.575
CPSF2 C621 (UniProt Q9P2I0) -0.0328
SRP68 C586 (UniProt Q9UHB9) 0.0154
LARS C573 (UniProt Q9P2J5) 0.117
UniProt Q9NW64_C24 0.141
RRBP1 C892 (UniProt Q9P2E9) 0.137
ADD3 C73 (UniProt Q9UEY8) 0.227
ANKFY1 C460 (UniProt Q9P2R3) 0.309
ARL15 C53 (UniProt Q9NXU5) 0.304
NCDN C3 (UniProt Q9UBB6) 0.397
ASF1B C172 (UniProt Q9NVP2) 0.387
ATXN10 C165 (UniProt Q9UBB4) 0.246
KCTD5 C28 (UniProt Q9NXV2) 0.313

Two records picked at random from those above, as already listed:
log2 ratio of iodoacetamide-alkyne labeling, inactive:
FAM120C C14 (UniProt Q9NX05) 0.33
LARS C113 (UniProt Q9P2J5) 0.116
